# From patent publication US12486302B2 (CDRD VENTURES INC., priority 2016, dated 2025)
# Experiment: general procedure: Fmoc solid-phase peptide synthesis; Rink Amide MBHA resin; HBTU/NMM; DIC/OxymaPure for cysteines
# Settings: for isolated yield: scale of the general procedure 0.1 mmol
# [1] = whole synthesis, overall, bis acetate salt
Substance,"isolated yield (whole synthesis, TFA salt) [%]","isolated yield (whole synthesis, 2-TFA salt) [%]",further results
t-BuCH2(CO)-Cpa-cyclo[D-Cys-Tyr-D-Phe(4-carbamoyl)-Lys(N^ε-Me)-Thr-Cys]-D-Tyr-NH2,10,–,–
H-Cpa-cyclo[D-Cys-Tyr-D-Phe(4-phenylureido)-Lys(N^ε-Me)-Thr-Cys]-D-Tyr-NH2,–,10,–
(Furan-2-carboxy)-Cpa-cyclo[D-Cys-Tyr-D-Phe(4-carbamoyl)-Lys(N^ε-Me)-Thr-Cys]-D-Tyr-NH2,8,–,–
H-Cpa-cyclo[D-Cys-Tyr-D-Phe(4-phenylureido)-Lys-Thr-Cys]-D-Tyr-NH2,–,–,isolated yield [1]: 30%
CH3O2C(CH2)2(CO)-Cpa-cyclo[D-Cys-Tyr-D-Phe(4-carbamoyl)-Lys(N^ε-Me)-Thr-Cys]-D-Tyr-NH2,9,–,–
H-Cpa-cyclo[D-Cys-Cpa-D-Phe(4-carbamoyl)-Lys(N^ε-Me)-Thr-Cys]-D-Cpa-NH2,–,23,–
PhSO2CH2(CO)-Cpa-cyclo[D-Cys-Tyr-D-Phe(4-carbamoyl)-Lys(N^ε-Me)-Thr-Cys]-D-Tyr-NH2,4,–,–
H-Cpa-cyclo[D-Cys-Tyr-D-Phe(4-carbamoyl)-Lys(N^ε-Me)-Thr-Cys]-D-Cpa-NH2,–,29,–
H2N(CO)(CH2)2(CO)-Cpa-cyclo[D-Cys-Tyr-D-Phe(4-carbamoyl)-Lys(N^ε-Me)-Thr-Cys]-D-Tyr-NH2,5,–,–
2-Pyridyl(CO)-Cpa-cyclo[D-Cys-Tyr-D-Phe(4-carbamoyl)-Lys(N^ε-Me)-Thr-Cys]-D-Tyr-NH2,8,–,–
H-β-Ala-Cpa-cyclo[D-Cys-Tyr-D-Phe(4-carbamoyl)-Lys (Nε-Me)-Thr-Cys]-D-Tyr-NH2,–,6,–
H-Cpa-cyclo[D-Cys-Tyr-D-Cit-Lys-Thr-Cys]-D-Tyr-NH2,–,–,isolated yield [1]: 32%
H—(N-Me)Cpa-cyclo[D-Cys-Tyr-D-Phe(4-carbamoyl)-Lys-Thr-Cys]-D-Tyr-NH2,–,10,–
H-Cpa-cyclo[D-Cys-Tyr-D-Phe(4-n-pentylamino)-Lys-Thr-Cys]-D-Tyr-NH2,–,–,"final HPLC purity (oxidative folding step, HPLC, TFA salt): 95.1%"
H-Cpa-cyclo[D-Cys-Tyr-D-Phe(4-carbamoyl)-Lys-Thr-Cys]-D-Tyr-NH2,–,–,isolated yield [1]: 33%
H-Cpa-D-Cys-Tyr-D-Phe(4-n-pentylamino)-Lys-Thr-Cys-D-Tyr-NH2,–,–,"crude mass (whole synthesis, scale 0.1 mmol, TFA salt, some converted to bis acetate salt (General Method H)): 50 mg"
H-Cpa-cyclo[D-Cys-Tyr-D-Phe(4-carbamoyl)-Lys(N^ε-Me)-Thr-Cys]-D-Tyr-NH2,–,–,isolated yield [1]: 40%
Ph(CO)NHCH2(CO)-Cpa-cyclo[D-Cys-Tyr-D-Phe(4-carbamoyl)-Lys(N^ε-Me)-Thr-Cys]-D-Tyr-NH2,3,–,–
H-Cpa-cyclo[D-Cys-Tyr-D-Phe(4-carbamoyl)-Lys(N^ε-diMe)-Thr-Cys]-D-Tyr-NH2,–,9,–
Ac-Gly-Cpa-cyclo[D-Cys-Tyr-D-Phe(4-carbamoyl)-Lys(N^ε-Me)-Thr-Cys]-D-Tyr-NH2,4,–,–
H-Cpa-cyclo[D-Cys-Cpa-D-Phe(4-carbamoyl)-Lys(N^ε-Me)-Thr-Cys]-D-Tyr-NH2,–,33,–
CH3(CH2)4(CO)-Cpa-cyclo[D-Cys-Tyr-D-Phe(4-carbamoyl)-Lys(N^ε-Me)-Thr-Cys]-D-Tyr-NH2,8,–,–
